# This is one part of the list. The main result of the screen is listed elsewhere. These columns were measured beside it and carry no call. The list favours compounds with an active or inconclusive main result. Words in brackets tell the shape of the fitted curve; partial curves, single points and poor fits give uncertain potencies.
# Assay: IkB Signaling
# Conditions: ABC-DLBCL IkBa-CBG/CBR dual luciferase ratio (green luciferase fused to IkBa over red control in OCI-Ly3 lymphoma cells), 4 h; measured here: control luc red channel unless noted
# Procedure, shortened: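 Curves were fitted separately to fusion (green), unfused (red) and ratio luminescence, then classed by r2, magnitude and activity. Cells: OCI-Ly3, 4 h compound plus doxycycline at 37C; 10 uM MG-132 defined full response.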
row,SMILES,AC50
1,COc1cccc(C2C(C(=O)Nc3ccccc3)=C(C)Nc3nc(-c4ccccc4)nn32)c1OC (configuration not stated),"25.1 µM [falling, partial curve]"
2,Cc1cccc(-c2noc(-c3ccc(N4CCN(C)CC4)c([N+](=O)[O-])c3)n2)c1,"15.8 µM [falling, partial curve]"
3,COc1ccc(C)cc1NC(=O)c1ccc2c(c1)CCN2S(=O)(=O)c1ccc(Cl)cc1,"0.794 µM [falling, partial curve]"
4,O=C(Nc1nccs1)c1ccc(Cl)c(S(=O)(=O)N2CCCCC2)c1,"15.8 µM [falling, partial curve]"
5,COc1ccc(CNc2nc3c(c(=O)n(C)c(=O)n3C)n2Cc2ccccc2Cl)cc1,"31.6 µM [falling, single point]"
6,Cc1cc(NC(=O)C(C)C)ncc1NC(=O)c1cccc(F)c1,"6.31 µM [rising, single point]"
7,COc1ccc(-c2noc(-c3ccc(N4CCCCC4C)c([N+](=O)[O-])c3)n2)cc1OC (configuration not stated),"1.26 µM [falling, full curve]"
8,Cn1c(CSCc2ccccc2Cl)nnc1SCC(=O)Nc1nccs1,"10 µM [falling, partial curve]"
9,Cc1cc(-n2[nH]c(C)c(C)c2=O)nc(-c2ccccc2O)n1,"15.8 µM [falling, partial curve]"
10,OCc1nc2ccccc2n1CC(O)Cn1ccc2ccccc21 (configuration not stated),"12.6 µM [falling, partial curve]"
11,CCOC(=O)N1CCc2c(sc(NCc3cccc(F)c3)c2C(=O)Nc2ccc(OC)cc2)C1,"0.2 µM [rising, full curve]"
12,Cc1ccc(CNc2nc3ccc(Cl)cc3n3nnnc23)cc1,"25.1 µM [falling, partial curve, poor fit]"
13,Cc1cc(-c2ccc(C)c(S(=O)(=O)Nc3ccccn3)c2)on1,"10 µM [rising, partial curve]"
14,COc1ccc(N(Cc2cccs2)C(=O)COc2cccc(C)c2C)cc1,"12.6 µM [falling, partial curve]"
15,O=C1CC(c2ccc3c(c2)OCO3)c2cc3c(cc2N1)OCO3 (configuration not stated),"15.8 µM [falling, partial curve]"
16,CCOc1ccc(-n2ccnc2SCC(=O)Nc2cccc3ccccc23)cc1,"39.8 µM [falling, single point]"

# Random excerpt: 2 entries already listed.
row,SMILES,AC50
8,Cn1c(CSCc2ccccc2Cl)nnc1SCC(=O)Nc1nccs1,"10 µM [falling, partial curve]"
2,Cc1cccc(-c2noc(-c3ccc(N4CCN(C)CC4)c([N+](=O)[O-])c3)n2)c1,"15.8 µM [falling, partial curve]"

# Next part.

row,SMILES,AC50
1,Cc1cccc(CC(=O)N2CC(=O)Nc3ccc(C)cc3C2c2ccc(F)cc2)c1 (configuration not stated),"15.8 µM [falling, partial curve]"
2,COc1ccc(N2C(=O)CSC23C(=O)N(Cc2cccc(C(F)(F)F)c2)c2ccccc23)cc1 (configuration not stated),"25.1 µM [falling, single point]"
3,Cc1ccc(Nc2c3c(nc4nc(-c5cccs5)nn24)CCCC3)cc1F,"39.8 µM [falling, single point]"
4,Cc1oc(-c2ccc(Cl)cc2)nc1CS(=O)CC(=O)NCCc1ccccc1 (configuration not stated),"39.8 µM [falling, single point]"
5,Oc1ccc(Cl)cc1Cc1cc(Cl)cc(Cc2cc(Cl)ccc2O)c1O,"3.16 µM [falling, partial curve]"
6,Cc1ccc(S(=O)(=O)c2nc(-c3cccs3)oc2SCC(=O)Nc2cc(C)cc(C)c2)cc1,"10 µM [falling, partial curve]"
7,CCOC(=O)c1ccccc1NC1c2ccccc2C(=O)N1C1CCN(C(=O)OCC)CC1 (configuration not stated),"25.1 µM [falling, partial curve]"
8,COc1ccccc1-c1nc(C#N)c(N2CCN(Cc3ccccc3)CC2)o1,"25.1 µM [falling, partial curve]"
9,Cc1cccc(Cn2c(=O)n(CCCC(=O)NCc3ccccc3Cl)c(=O)c3ccccc32)c1,"10 µM [falling, partial curve]"
10,Cc1ccc(NC(=O)C2CCC(CNS(=O)(=O)c3ccc4c(c3)CCCC(=O)N4)CC2)cc1F (configuration not stated),"20 µM [falling, single point]"
11,COCCNc1nc2c(c(=O)n(Cc3cccc(Cl)c3)c(=O)n2C)n1C,"31.6 µM [falling, partial curve]"
12,COc1ccc(OCC(=O)Nc2c(C(=O)N3CCN(c4ccccc4)CC3)oc3ccccc23)cc1,"10 µM [falling, partial curve, poor fit]"
13,Brc1ccc2ncnc(Nc3ccc(N4CCOCC4)cc3)c2c1,"6.31 µM [falling, partial curve]"
14,CCCCN1CCCc2cc(CN(CCCN3CCOCC3)C(=O)Nc3ccc(CC)cc3)ccc21,"10 µM [falling, partial curve]"
15,CCOC(=O)c1c(-c2ccc(OC)c(OC)c2)csc1NC(=O)c1ccc(C)cc1,"12.6 µM [falling, partial curve]"
16,O=C(NCc1ccc(F)cc1)c1cc2cccc3c2n1CCS3,"25.1 µM [falling, single point]"

# From PubChem BioAssay AID445 (National Center for Advancing Translational Sciences (NCATS), 2006)
